In patent publication US20210253738A1 (UNITED STATES OF AMERICA AS REPRESENTED BY THE SECRETARY …, published 2021):
Results are given in words; binding and its absence hold for the method and conditions named. Some results given as binding are weak or reduced against the parent protein; the word gives no strength.

Molecular target: Protein A (UniProt P38507)
Assay: lateral flow assay, Protein A control line on a nitrocellulose strip

B1: 5D2 monoclonal antibody (antibody, mouse IgG2b, kappa, V domains shown)
VH: QVQLQQPGAELVKPGASVKVSCKASGYTFTSYWMHWVKQRPGQGLEWIGRIHLSDSDTNYNQNFKDKATLTVDKSSRTAHMHLSSLTSADSAVYYCAMGGTFQSNYDTYWGQGTLVTVSA
VL: DIQMTQSPASLSASVGETVTITCRASGNIHNYLAWYQQKQGKSPQLLVYNAKTLTDGVPSRFSGSGSGTQYSLKINSLQPEDFGNYYCQHFLYTPYTFGGGTKLEMRR
notes: Mouse IgG2b, kappa, raised against the small molecule emtricitabine (FTC); In the lateral flow assay the antibody was conjugated to gold; also called Mab 5D2; FTC (5D2) monoclonal antibody
In the case of B1, the binding is reported as “binds”.
